Measured values: US12156523B2 (priority 2017, dated 2024)
Some of these results come from one statement about several compounds together.

The compounds below were run on wheat powdery mildew (assay: Activity against wheat powdery mildew (Example 13)). Conditions: wettable powder (Preparation Example 1) diluted 1000-fold, sprayed twice at 1 L/m^2, examined approx. 4 weeks after second spraying.
Assay type: in vivo

Row | Structure (SMILES) | Control value (severity on the flag leaf)
1 | CC(C)Oc1cccc(NC(=O)c2cc(F)nc(F)c2)c1 [Example 1-134] | ≥ 50
2 | COc1cccc(NC(=O)c2cc(F)nc(F)c2)c1 [Example 1-135] | ≥ 50

The compounds below were run on rice (cultivar: Jikkoku) (assay: Barrier to growth of rice (phytotoxicity, Example 18)). Conditions: untreated plant length set as 100; 0.2 mg/mL acetone solution diluted 10-fold, 0.25 mL per 1 mL of soil; first leaf stage; example compounds.
Assay type: in vivo
Experimental: The acetone solutions of each example compound and compounds described in the prior art documents shown in the below-mentioned Table 38 (hereinafter, referred to as compounds of Comparative Examples 1 to 5, respectively) were prepared such that the content thereof became 0.2 mg/mL, and then diluted to 10-fold with water to be subjected to conducting test. 0.25 mL of the diluted solution per 1 mL of the soil was made to be absorbed in the soil. Then, rice seeds (cultivar: Jikkoku) subjected to forcing to germination were seeded in the soil to be cultivated in plant cultivation chambers. The plant length of the rice grown to the first leaf stage was measured, and the ratio of the plant length, relative to the untreated plant length set as 100, (hereinafter, referred to as “the ratio of plant length relative to untreated plant length”) was calculated. The presence or absence of the barrier to growth was determined from the calculated ratio.

Row | Structure (SMILES) | Ratio of plant length relative to untreated plant length
3 | CC(C)Oc1cccc(NC(=O)c2cc(F)nc(F)c2)c1 [Example 1-134] | ≥ 80
4 | COc1cccc(NC(=O)c2cc(F)nc(F)c2)c1 [Example 1-135] | ≥ 80
5 | CCCCCCc1ccc(NC(=O)c2cc(F)nc(F)c2)cc1 [Example 1-181] | ≥ 80
6 | C#CCOC(=O)c1cc(F)nc(F)c1 [Example 1-182] | ≥ 80
7 | O=C(OCc1ccccc1)c1cc(F)nc(F)c1 [Example 1-183] | ≥ 80
8 | CCCOC(=O)c1cc(F)nc(F)c1 [Example 1-184] | ≥ 80
9 | CCOC(=O)c1cc(F)nc(F)c1 [Example 1-185] | ≥ 80
10 | CCc1ccc(OC(=O)c2cc(F)nc(F)c2)cc1 [Example 1-186] | ≥ 80
11 | COc1cccc(OC(=O)c2cc(F)nc(F)c2)c1 [Example 1-187] | ≥ 80
12 | C=CCOC(=O)c1cc(F)nc(F)c1 [Example 1-188] | ≥ 80
13 | COC(=O)c1cc(F)nc(F)c1 [Example 1-189] | ≥ 80
14 | CC(=O)c1cccc(NC(=O)c2cc(F)nc(F)c2)c1 [Example 1-190] | ≥ 80
15 | O=C(Nc1cccc(C(F)(F)F)c1)c1cc(F)nc(F)c1 [Example 1-191] | ≥ 80
16 | CSc1cccc(NC(=O)c2cc(F)nc(F)c2)c1 [Example 1-192] | ≥ 80
17 | O=C(Nc1cccc(O)c1)c1cc(F)nc(F)c1 [Example 1-193] | ≥ 80
18 | O=C(Nc1nc2ccccc2s1)c1cc(F)nc(F)c1 [Example 1-194] | ≥ 80
19 | O=C(Nc1cccc(NC(=O)c2cc(F)nc(F)c2)c1)c1cc(F)nc(F)c1 [Example 1-195] | ≥ 80

Row | Structure (SMILES) | Ratio of plant length relative to untreated plant length
20 | O=C(Nc1ccc(F)cc1)c1cc(F)nc(F)c1 [Example 1-201] | ≥ 80
21 | O=C(Oc1cccc2ccccc12)c1cc(F)nc(F)c1 [Example 1-202] | ≥ 80
22 | O=C(Oc1ccc([N+](=O)[O-])cc1)c1cc(F)nc(F)c1 [Example 1-203] | ≥ 80
23 | N#Cc1ccc(OC(=O)c2cc(F)nc(F)c2)cc1 [Example 1-204] | ≥ 80
24 | O=C(OC1CCCCC1)c1cc(F)nc(F)c1 [Example 1-205] | ≥ 80
25 | O=C(c1cc(F)nc(F)c1F)N1CCCCC1 [Example 2-1] | ≥ 80
26 | Cn1cccc1C(=O)c1cc(F)nc(F)c1F [Example 2-2] | ≥ 80
27 | O=C(c1cc(F)nc(F)c1F)N1CCOCC1 [Example 2-3] | ≥ 80
28 | O=C(c1cc(F)nc(F)c1F)N1CCc2ccccc21 [Example 2-4] | ≥ 80
29 | O=C1c2ccccc2S(=O)(=O)N1C(=O)c1cc(F)nc(F)c1F [Example 2-5] | ≥ 80
30 | CC(=O)OCc1cc(F)nc(F)c1F [Example 3-1] | ≥ 80
31 | OCc1cc(F)nc(F)c1F [Example 3-2] | ≥ 80
32 | CC1CN=C(c2cc(F)nc(F)c2F)O1 (centres unmarked) [Example 4-1] | ≥ 80
33 | Fc1cc(C2=NCCO2)c(F)c(F)n1 [Example 4-2] | ≥ 80
34 | Fc1cc(C2=NCCCO2)c(F)c(F)n1 [Example 4-3] | ≥ 80
35 | Fc1cc(C2=NCCO2)cc(F)n1 [Example 4-4] | ≥ 80
